Measurements taken from publication PMC9450374.
Results are given in words; binding and its absence hold for the method and conditions named. In cells and extracts the contact can be indirect. Some results given as binding are weak or reduced against the parent protein; the word gives no strength. Tags and fused reporters may be left off the sequences shown.

Biological target: T1, Myc box-dependent-interacting protein 1 (BIN1) (human (endogenous in MIA PaCa-2)) (UniProt O00499)
T1 sequence: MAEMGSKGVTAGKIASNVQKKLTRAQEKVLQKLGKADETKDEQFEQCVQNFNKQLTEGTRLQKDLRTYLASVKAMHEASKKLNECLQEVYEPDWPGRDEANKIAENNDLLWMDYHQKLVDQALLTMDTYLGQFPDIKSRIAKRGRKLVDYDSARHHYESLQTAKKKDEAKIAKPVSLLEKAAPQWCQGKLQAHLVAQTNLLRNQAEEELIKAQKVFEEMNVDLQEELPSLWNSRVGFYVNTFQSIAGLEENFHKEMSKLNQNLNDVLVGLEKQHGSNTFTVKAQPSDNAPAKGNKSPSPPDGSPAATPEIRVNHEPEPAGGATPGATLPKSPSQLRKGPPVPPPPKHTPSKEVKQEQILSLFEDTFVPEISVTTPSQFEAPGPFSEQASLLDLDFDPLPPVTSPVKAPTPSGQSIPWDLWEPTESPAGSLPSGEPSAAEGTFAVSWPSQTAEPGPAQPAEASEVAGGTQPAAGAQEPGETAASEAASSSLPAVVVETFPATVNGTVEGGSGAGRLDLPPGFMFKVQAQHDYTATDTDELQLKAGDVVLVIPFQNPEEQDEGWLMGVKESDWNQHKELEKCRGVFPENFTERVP
Assay: co-IP; MIA PaCa-2 cell lysate; also in cells transfected with circPDK1-WT or circPDK1-MUT and with RNase R (100 U/ml); method as in ref. 19; which protein was precipitated is not given

B1: UBE2O (enzyme, UniProt Q9C0C9 1-1292)
chain: MADPAAPTPAAPAPAQAPAPAPEAVPAPAAAPVPAPAPASDSASGPSSDSGPEAGSQRLLFSHDLVSGRYRGSVHFGLVRLIHGEDSDSEGEEEGRGSSGCSEAGGAGHEEGRASPLRRGYVRVQWYPEGVKQHVKETKLKLEDRSVVPRDVVRHMRSTDSQCGTVIDVNIDCAVKLIGTNCIIYPVNSKDLQHIWPFMYGDYIAYDCWLGKVYDLKNQIILKLSNGARCSMNTEDGAKLYDVCPHVSDSGLFFDDSYGFYPGQVLIGPAKIFSSVQWLSGVKPVLSTKSKFRVVVEEVQVVELKVTWITKSFCPGGTDSVSPPPSVITQENLGRVKRLGCFDHAQRQLGERCLYVFPAKVEPAKIAWECPEKNCAQGEGSMAKKVKRLLKKQVVRIMSCSPDTQCSRDHSMEDPDKKGESKTKSEAESASPEETPDGSASPVEMQDEGAEEPHEAGEQLPPFLLKEGRDDRLHSAEQDADDEAADDTDDTSSVTSSASSTTSSQSGSGTSRKKSIPLSIKNLKRKHKRKKNKITRDFKPGDRVAVEVVTTMTSADVMWQDGSVECNIRSNDLFPVHHLDNNEFCPGDFVVDKRVQSCPDPAVYGVVQSGDHIGRTCMVKWFKLRPSGDDVELIGEEEDVSVYDIADHPDFRFRTTDIVIRIGNTEDGAPHKEDEPSVGQVARVDVSSKVEVVWADNSKTIILPQHLYNIESEIEESDYDSVEGSTSGASSDEWEDDSDSWETDNGLVEDEHPKIEEPPIPPLEQPVAPEDKGVVISEEAATAAVQGAVAMAAPMAGLMEKAGKDGPPKSFRELKEAIKILESLKNMTVEQLLTGSPTSPTVEPEKPTREKKFLDDIKKLQENLKKTLDNVAIVEEEKMEAVPDVERKEDKPEGQSPVKAEWPSETPVLCQQCGGKPGVTFTSAKGEVFSVLEFAPSNHSFKKIEFQPPEAKKFFSTVRKEMALLATSLPEGIMVKTFEDRMDLFSALIKGPTRTPYEDGLYLFDIQLPNIYPAVPPHFCYLSQCSGRLNPNLYDNGKVCVSLLGTWIGKGTERWTSKSSLLQVLISIQGLILVNEPYYNEAGFDSDRGLQEGYENSRCYNEMALIRVVQSMTQLVRRPPEVFEQEIRQHFSTGGWRLVNRIESWLETHALLEKAQALPNGVPKASSSPEPPAVAELSDSGQQEPEDGGPAPGEASQGSDSEGGAQGLASASRDHTDQTSETAPDASVPPSVKPKKRRKSYRSFLPEKSGYPDIGFPLFPLSKGFIKSIRGVLTQFRAALLEAGMPECTEDK
Q: For B1, which binding is on record?
A: The binding was “binds”.
